The target in assay [1] is LARP4 (human (endogenous in HEK293T)) (UniProt Q71RC2). Description: SEC; DIF-FRAC control sample (co-fractionation mass spectrometry): clarified HEK293T lysate without RNase A, native SEC on BioSep-SEC-s4000 in PBS pH 7.2, 50 fractions, proteins of each fraction identified by LC-MS/MS; co-elution of elution profiles.
Assay [2] has the same target. The assay can be described thus: SEC; DIF-FRAC RNase A-treated sample (co-fractionation mass spectrometry): clarified HEK293T lysate with RNase A (80 ug, 30 min, room temperature), native SEC on BioSep-SEC-s4000 in PBS pH 7.2, 50 fractions, proteins of each fraction identified by LC-MS/MS; co-elution of elution profiles.
Assay [3] deals with BAZ1A (human (endogenous in HEK293T)) (UniProt Q9NRL2). Description: SEC; DIF-FRAC control sample (co-fractionation mass spectrometry): clarified HEK293T lysate without RNase A, native SEC on BioSep-SEC-s4000 in PBS pH 7.2, 50 fractions, proteins of each fraction identified by LC-MS/MS; co-elution of elution profiles.
The target in assay [4] is T1, SAMM50 (human (endogenous in HEK293T)) (UniProt Q9Y512).
T1 sequence: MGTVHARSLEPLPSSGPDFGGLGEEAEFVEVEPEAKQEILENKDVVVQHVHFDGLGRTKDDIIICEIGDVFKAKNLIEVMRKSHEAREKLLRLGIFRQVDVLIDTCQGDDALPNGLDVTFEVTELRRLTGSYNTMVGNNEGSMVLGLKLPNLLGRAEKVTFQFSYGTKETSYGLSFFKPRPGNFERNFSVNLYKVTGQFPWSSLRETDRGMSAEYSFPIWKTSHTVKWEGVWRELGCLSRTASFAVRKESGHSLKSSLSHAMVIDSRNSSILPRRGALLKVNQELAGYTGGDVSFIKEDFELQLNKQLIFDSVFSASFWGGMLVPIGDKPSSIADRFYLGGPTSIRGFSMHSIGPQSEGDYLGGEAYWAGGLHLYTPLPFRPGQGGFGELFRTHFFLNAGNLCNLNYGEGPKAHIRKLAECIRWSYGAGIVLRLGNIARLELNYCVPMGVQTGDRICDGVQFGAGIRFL
Described as above.

Sequences of proteins named here, by UniProt entry; tags and fusion partners are left off.
UniProt Q71RC2: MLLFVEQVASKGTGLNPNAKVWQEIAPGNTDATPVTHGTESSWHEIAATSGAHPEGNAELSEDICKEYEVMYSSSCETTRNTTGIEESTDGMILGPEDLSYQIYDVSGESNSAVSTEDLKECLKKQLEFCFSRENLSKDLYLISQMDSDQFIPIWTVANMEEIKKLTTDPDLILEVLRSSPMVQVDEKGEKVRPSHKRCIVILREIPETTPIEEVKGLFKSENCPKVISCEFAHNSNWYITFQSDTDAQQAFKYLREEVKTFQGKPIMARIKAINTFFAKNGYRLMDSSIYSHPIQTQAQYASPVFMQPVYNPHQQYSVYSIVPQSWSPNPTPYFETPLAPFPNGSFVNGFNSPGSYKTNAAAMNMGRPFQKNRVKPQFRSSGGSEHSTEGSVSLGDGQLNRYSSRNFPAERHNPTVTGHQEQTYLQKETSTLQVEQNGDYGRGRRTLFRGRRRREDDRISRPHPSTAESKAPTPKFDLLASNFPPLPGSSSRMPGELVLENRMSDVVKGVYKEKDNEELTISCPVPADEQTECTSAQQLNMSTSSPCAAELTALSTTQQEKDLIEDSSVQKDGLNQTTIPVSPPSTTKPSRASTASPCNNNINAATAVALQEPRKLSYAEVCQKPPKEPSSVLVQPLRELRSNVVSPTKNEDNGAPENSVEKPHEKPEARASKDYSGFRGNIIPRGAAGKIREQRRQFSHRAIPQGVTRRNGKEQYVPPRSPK
UniProt Q9NRL2: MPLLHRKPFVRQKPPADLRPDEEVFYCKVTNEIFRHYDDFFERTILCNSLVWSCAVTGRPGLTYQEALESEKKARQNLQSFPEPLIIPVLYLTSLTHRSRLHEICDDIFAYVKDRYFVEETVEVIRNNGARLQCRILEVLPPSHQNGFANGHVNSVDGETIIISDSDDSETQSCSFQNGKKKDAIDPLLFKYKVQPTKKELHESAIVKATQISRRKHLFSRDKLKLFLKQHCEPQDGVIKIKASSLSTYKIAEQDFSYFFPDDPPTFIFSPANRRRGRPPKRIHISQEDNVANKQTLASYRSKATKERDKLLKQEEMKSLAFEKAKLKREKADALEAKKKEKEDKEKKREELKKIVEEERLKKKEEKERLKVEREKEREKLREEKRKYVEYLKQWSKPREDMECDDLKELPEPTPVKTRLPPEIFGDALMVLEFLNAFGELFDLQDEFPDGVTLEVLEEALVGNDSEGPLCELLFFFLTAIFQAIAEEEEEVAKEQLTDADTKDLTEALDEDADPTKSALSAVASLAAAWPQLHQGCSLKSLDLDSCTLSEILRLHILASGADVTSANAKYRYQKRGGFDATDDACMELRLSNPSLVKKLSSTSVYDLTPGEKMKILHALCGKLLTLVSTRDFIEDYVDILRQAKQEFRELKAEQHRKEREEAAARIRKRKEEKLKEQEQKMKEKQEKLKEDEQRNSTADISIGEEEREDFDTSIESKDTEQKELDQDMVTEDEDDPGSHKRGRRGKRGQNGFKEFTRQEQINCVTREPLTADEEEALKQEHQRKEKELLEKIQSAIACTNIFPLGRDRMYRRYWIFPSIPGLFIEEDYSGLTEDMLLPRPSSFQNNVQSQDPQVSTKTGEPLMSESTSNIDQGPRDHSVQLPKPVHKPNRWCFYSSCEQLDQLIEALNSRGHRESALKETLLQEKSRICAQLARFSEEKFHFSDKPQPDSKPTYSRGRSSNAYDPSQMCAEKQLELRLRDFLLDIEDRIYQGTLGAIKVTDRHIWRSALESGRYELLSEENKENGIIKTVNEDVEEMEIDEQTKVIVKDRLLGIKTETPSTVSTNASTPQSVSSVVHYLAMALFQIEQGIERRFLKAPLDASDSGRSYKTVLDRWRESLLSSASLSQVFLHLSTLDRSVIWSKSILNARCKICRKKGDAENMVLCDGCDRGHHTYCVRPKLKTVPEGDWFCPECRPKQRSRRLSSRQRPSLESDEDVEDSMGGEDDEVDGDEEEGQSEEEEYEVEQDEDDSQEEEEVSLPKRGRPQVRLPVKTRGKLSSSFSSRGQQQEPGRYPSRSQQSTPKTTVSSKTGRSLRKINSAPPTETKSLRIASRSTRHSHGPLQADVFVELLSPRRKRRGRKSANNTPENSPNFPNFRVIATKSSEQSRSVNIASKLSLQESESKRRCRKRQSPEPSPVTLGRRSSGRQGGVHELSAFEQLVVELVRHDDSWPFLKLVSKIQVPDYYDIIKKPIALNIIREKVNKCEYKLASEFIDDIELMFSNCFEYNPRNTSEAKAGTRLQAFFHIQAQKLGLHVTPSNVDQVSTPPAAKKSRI
UniProt Q92615: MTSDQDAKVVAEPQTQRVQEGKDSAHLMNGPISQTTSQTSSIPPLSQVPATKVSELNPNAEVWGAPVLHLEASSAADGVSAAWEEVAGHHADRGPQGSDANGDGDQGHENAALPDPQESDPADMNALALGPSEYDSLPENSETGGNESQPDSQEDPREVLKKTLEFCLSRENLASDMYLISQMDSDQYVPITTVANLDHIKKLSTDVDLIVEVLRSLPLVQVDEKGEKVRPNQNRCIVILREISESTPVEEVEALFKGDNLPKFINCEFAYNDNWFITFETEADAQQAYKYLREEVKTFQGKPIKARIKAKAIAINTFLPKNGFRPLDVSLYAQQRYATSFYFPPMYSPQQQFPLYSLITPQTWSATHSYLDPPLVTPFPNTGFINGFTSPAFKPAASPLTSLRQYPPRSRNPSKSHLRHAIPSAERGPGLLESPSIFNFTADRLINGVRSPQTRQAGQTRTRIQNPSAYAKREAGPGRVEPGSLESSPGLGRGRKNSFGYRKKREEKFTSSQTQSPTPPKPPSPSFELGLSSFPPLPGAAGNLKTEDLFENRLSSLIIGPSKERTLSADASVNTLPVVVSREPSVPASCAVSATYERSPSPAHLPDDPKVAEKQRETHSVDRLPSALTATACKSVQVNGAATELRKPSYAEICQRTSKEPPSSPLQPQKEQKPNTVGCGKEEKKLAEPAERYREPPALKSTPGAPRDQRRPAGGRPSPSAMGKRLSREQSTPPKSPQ
UniProt O60264: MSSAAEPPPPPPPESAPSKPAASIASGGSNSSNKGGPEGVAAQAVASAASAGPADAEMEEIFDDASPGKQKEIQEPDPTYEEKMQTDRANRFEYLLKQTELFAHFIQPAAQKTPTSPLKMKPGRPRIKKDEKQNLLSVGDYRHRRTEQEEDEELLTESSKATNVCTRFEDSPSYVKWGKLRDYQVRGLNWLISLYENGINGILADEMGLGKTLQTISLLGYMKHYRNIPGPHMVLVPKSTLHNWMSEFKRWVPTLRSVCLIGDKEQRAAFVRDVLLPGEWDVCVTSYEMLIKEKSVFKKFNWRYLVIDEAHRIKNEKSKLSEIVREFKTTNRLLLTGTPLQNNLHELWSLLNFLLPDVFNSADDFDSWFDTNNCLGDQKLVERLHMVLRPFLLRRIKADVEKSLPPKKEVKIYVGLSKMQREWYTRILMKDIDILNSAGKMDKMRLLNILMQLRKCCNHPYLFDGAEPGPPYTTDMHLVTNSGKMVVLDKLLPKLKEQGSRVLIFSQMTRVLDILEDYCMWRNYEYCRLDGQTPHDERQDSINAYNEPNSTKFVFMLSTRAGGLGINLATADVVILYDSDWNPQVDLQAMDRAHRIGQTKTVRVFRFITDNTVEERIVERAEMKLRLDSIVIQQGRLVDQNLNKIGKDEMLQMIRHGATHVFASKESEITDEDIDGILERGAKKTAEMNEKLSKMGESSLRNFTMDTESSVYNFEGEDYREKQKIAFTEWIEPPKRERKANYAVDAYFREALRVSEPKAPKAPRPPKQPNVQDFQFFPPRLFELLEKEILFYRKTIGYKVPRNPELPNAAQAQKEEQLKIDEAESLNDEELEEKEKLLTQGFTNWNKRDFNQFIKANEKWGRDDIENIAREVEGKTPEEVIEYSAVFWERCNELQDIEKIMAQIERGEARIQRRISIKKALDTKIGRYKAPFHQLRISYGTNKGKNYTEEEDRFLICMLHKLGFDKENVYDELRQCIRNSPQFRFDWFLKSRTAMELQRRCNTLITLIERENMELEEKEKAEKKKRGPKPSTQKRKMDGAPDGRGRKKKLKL

In assay [5] the target is T1, SAMM50 (human (endogenous in HEK293T)). Description: SEC; DIF-FRAC RNase A-treated sample (co-fractionation mass spectrometry): clarified HEK293T lysate with RNase A (80 ug, 30 min, room temperature), native SEC on BioSep-SEC-s4000 in PBS pH 7.2, 50 fractions, proteins of each fraction identified by LC-MS/MS; co-elution of elution profiles.
Assay [6] deals with T2, FLII (human (endogenous in HEK293T)) (UniProt Q13045).
T2 sequence: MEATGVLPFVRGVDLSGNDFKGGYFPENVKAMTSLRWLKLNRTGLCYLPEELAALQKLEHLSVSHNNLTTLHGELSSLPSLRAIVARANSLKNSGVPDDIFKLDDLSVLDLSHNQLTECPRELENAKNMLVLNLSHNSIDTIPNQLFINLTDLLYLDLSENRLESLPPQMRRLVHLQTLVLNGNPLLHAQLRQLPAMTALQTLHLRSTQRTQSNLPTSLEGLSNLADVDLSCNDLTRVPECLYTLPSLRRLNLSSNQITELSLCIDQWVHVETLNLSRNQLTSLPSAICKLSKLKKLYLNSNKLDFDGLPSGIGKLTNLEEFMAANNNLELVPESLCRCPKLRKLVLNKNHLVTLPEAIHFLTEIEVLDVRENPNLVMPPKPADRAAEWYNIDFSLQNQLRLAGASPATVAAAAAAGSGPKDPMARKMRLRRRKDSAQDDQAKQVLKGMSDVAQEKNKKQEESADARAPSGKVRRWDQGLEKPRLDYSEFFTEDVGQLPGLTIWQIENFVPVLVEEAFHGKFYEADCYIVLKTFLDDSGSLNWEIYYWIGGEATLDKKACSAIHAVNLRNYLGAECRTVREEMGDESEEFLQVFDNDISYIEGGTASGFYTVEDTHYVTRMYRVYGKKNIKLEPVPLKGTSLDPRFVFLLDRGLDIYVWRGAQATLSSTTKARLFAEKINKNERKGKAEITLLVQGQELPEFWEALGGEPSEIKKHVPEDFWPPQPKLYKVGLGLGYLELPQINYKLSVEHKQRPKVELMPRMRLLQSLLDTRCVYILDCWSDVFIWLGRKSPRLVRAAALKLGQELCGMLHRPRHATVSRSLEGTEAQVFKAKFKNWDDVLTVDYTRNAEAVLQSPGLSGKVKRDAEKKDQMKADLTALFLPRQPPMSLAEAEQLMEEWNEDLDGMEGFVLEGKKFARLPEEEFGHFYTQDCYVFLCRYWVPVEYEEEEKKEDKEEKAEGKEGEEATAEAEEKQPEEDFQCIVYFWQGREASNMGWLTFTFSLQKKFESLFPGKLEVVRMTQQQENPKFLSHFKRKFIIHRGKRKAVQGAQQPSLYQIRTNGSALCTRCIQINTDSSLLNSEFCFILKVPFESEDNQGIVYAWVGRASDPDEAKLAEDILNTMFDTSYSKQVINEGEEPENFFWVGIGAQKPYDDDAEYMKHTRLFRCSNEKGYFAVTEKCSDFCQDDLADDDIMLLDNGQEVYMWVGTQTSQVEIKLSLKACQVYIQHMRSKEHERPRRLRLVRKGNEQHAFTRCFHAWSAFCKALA
Description: SEC; DIF-FRAC control sample (co-fractionation mass spectrometry): clarified HEK293T lysate without RNase A, native SEC on BioSep-SEC-s4000 in PBS pH 7.2, 50 fractions, proteins of each fraction identified by LC-MS/MS; co-elution of elution profiles.

Assay [7] has as its target T2, FLII (human (endogenous in HEK293T)). The assay can be described thus: SEC; DIF-FRAC RNase A-treated sample (co-fractionation mass spectrometry): clarified HEK293T lysate with RNase A (80 ug, 30 min, room temperature), native SEC on BioSep-SEC-s4000 in PBS pH 7.2, 50 fractions, proteins of each fraction identified by LC-MS/MS; co-elution of elution profiles.
Assay [8] addresses T3, SPATA5 (human (endogenous in HEK293T)) (UniProt Q8NB90).
T3 sequence: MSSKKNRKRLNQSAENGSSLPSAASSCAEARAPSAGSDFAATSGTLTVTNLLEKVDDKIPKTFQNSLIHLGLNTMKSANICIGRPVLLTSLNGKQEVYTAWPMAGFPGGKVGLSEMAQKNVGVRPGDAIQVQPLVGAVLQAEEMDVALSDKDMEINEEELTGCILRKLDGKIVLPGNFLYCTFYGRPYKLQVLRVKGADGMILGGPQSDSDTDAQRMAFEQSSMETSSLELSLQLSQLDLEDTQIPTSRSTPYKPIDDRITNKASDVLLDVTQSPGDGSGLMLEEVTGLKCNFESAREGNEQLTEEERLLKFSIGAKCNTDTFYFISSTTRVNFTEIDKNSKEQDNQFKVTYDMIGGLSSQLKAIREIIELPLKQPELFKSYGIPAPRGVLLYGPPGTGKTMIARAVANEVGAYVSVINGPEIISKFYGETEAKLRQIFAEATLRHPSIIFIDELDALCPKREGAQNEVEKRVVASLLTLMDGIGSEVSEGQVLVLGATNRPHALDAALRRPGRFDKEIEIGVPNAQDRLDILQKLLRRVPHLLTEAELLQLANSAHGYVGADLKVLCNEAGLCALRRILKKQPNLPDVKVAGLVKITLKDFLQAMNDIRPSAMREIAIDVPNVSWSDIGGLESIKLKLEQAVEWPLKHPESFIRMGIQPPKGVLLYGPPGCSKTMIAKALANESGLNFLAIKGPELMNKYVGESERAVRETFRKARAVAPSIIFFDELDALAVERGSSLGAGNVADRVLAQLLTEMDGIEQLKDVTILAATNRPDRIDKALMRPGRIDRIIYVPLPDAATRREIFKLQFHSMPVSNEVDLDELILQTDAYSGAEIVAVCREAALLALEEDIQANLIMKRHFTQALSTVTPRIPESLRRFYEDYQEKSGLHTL
The assay can be described thus: SEC; DIF-FRAC control sample (co-fractionation mass spectrometry): clarified HEK293T lysate without RNase A, native SEC on BioSep-SEC-s4000 in PBS pH 7.2, 50 fractions, proteins of each fraction identified by LC-MS/MS; co-elution of elution profiles.

Results are given in words; binding and its absence hold for the method and conditions named. Some entries that bind do so weakly or less than the wild type.

In paper PMC6873818 one finds binding data, which are given here for 5 molecules.

Consider LARP4B (from UniProt Q92615 1-738), for which the binding result in assay [1] and in assay [2] was “binds” in each case.

As for SMARCA5 (from UniProt O60264 1-1052), the binding result in assay [3] is listed as “binds”.

B1: MTX3 (protein, UniProt Q5HYI7 1-312)
chain: MAAPLELSCWGGGWGLPSVHSESLVVMAYAKFSGAPLKVNVIDNTWRGSRGDVPILTTEDDMVSQPAKILNFLRKQKYNADYELSAKQGADTLAYIALLEEKLLPAVLHTFWVESDNYFTVTKPWFASQIPFPLSLILPGRMSKGALNRILLTRGQPPLYHLREVEAQIYRDAKECLNLLSNRLGTSQFFFGDTPSTLDAYVFGFLAPLYKVRFPKVQLQEHLKQLSNLCRFCDDILSSYFRLSLGGISPAGQETVDANLQKLTQLVNKESNLIEKMDDNLRQSPQLPPRKLPTLKLTPAEEENNSFQRLSP
Take B1: the binding result in assay [4] and in assay [5] was “binds” in each case.

B2: LRRFIP1 (protein, UniProt Q32MZ4 1-808)
chain: MTSPAAAQSREIDCLSPEAQKLAEARLAAKRAARAEAREIRMKELERQQKEEDSERYSRRSRRNTSASDEDERMSVGSRGSLRVEERPEKDFTEKGSRNMPGLSAATLASLGGTSSRRGSGDTSISIDTEASIREIKELNELKDQIQDVEGKYMQGLKEMKDSLAEVEEKYKKAMVSNAQLDNEKTNFMYQVDTLKDMLLELEEQLAESRRQYEEKNKEFEREKHAHSILQFQFAEVKEALKQREEMLEKHGIILNSEIATNGETSDTLNNVGYQGPTKMTKEELNALKSTGDGTLGRASEVEVKNEIVANVGKREILHNTEKEQHTEDTVKDCVDIEVFPAGENTEDQKSSEDTAPFLGTLAGATYEEQVQSQILESSSLPENTVQVESNEVMGAPDDRTRTPLEPSNCWSDLDGGNHTENVGEAAVTQVEEQAGTVASCPLGHSDDTVYHDDKCMVEVPQELETSTGHSLEKEFTNQEAAEPKEVPAHSTEVGRDHNEEEGEETGLRDEKPIKTEVPGSPAGTEGNCQEATGPSTVDTQNEPLDMKEPDEEKSDQQGEALDSSQKKTKNKKKKNKKKKSPVPVETLKDVKKELTYQNTDLSEIKEEEQVKSTDRKSAVEAQNEVTENPKQKIAAESSENVDCPENPKIKLDGKLDQEGDDVQTAAEEVLADGDTLDFEDDTVQSSGPRAGGEELDEGVAKDNAKIDGATQSSPAEPKSEDADRCTLPEHESPSQDISDACEAESTERCEMSEHPSQTVRKALDSNSLENDDLSAPGREPGHFNPESREDTRGGNEKGKSKEDCTMS
For the molecule B2, the binding entry in assay [6] and in assay [7] was “binds” in each case.

B3: SPATA5L1 (protein, UniProt Q9BVQ7 1-753)
chain: MAPDSDPFPEGPLLKLLPLDARDRGTQRCRLGPAALHALGARLGSAVKISLPDGGSCLCTAWPRRDGADGFVQLDPLCASPGAAVGASRSRRSLSLNRLLLVPCPPLRRVAVWPVLRERAGAPGARNTAAVLEAAQELLRNRPISLGHVVVAPPGAPGLVAALHIVGGTPSPDPAGLVTPRTRVSLGGEPPSEAQPQPEVPLGGLSEAADSLRELLRLPLRYPRALTALGLAVPRGVLLAGPPGVGKTQLVRAVAREAGAELLAVSAPALQGSRPGETEENVRRVFQRARELASRGPSLLFLDEMDALCPQRGSRAPESRVVAQVLTLLDGASGDREVVVVGATNRPDALDPALRRPGRFDREVVIGTPTLKQRKEILQVITSKMPISSHVDLGLLAEMTVGYVGADLTALCREAAMHALLHSEKNQDNPVIDEIDFLEAFKNIQPSSFRSVIGLMDIKPVDWEEIGGLEDVKLKLKQSIEWPLKFPWEFVRMGLTQPKGVLLYGPPGCAKTTLVRALATSCHCSFVSVSGADLFSPFVGDSEKVLSQIFRQARASTPAILFLDEIDSILGARSASKTGCDVQERVLSVLLNELDGVGLKTIERRGSKSSQQEFQEVFNRSVMIIAATNRPDVLDTALLRPGRLDKIIYIPPPDHKGRLSILKVCTKTMPIGPDVSLENLAAETCFFSGADLRNLCTEAALLALQENGLDATTVKQEHFLKSLKTVKPSLSCKDLALYENLFKKEGFSNVEGI
For the molecule B3, the binding entry in assay [8] was “binds”.
